# PubChem BioAssay AID743454 | Peter MacCallum Cancer Centre, 2014
# Aim: 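Genes whose loss kills vorinostat-resistant colon cancer cells under vorinostat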 (primary screen)
# Cells: human HCT116-VR colon cancer cells, selected for vorinostat resistance
# Reagent: siRNA pool against human genes, 40 nM siRNA pool
# Timing: vorinostat for 24 h, read-out about 72 h after transfection
# Challenge: vorinostat at 2.5 µM final
# Read-out: 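Cell viability by CellTiter-Fluor and caspase 3/7 activity by luminescence, each scaled to mock wells per plate, duplicates averaged, then robust z-scored over all plates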
# Direction: viability robust z-score: higher = more viable cells than screen typical; caspase robust z-score: higher = more caspase 3/7 activity than screen typical
# Call rule: 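a knock-down is a hit when classed RV1 or RV2 for lowered viability, or CA1 or CA2 for caspase activation; those lethal without drug were dropped; hits were retested singly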
# This is one part, drawn at random, of about 18,000 reagents. Over the whole deposit, 450 (2.5%) were called active. 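Single biological run; no consistent viability z cut-off exists, so the class columns, not z-scores, define the calls.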 A number with no mark means an inactive call.
Gene,viability hit class,caspase hit class,viability robust z-score,caspase robust z-score
CELF2,no change,no change,-0.08,0.2
IRX6,no change,no change,-1.43,1.54
CYTH2,no change,no change,0.36,-0.48
HERC2P3,no change,no change,0.62,0.78
PTGER3,no change,no change,0.02,-0.6
FAM174C,no change,no change,-0.1,0.31
EIF3K,no change,no change,-0.37,-0.46
RPL7,no change,no change,-4.86,-0.64
CREBL2,no change,no change,-1.85,1.13
SF3B5,no change,no change,-4.54,3.07
HSPB7,no change,no change,1.38,0.66
NIPBL,no change,no change,0.79,-0.73
NRIP3,no change,no change,0.44,-0.63
COL15A1,no change,no change,-0.38,2.8
GEMIN4,no change,no change,-0.68,-0.42
TSNAXIP1,no change,no change,-0.3,-0.62
ANKFN1,no change,no change,0.34,0.46
KICS2,no change,no change,-0.1,1.45
SPRR2G,no change,no change,0.68,-0.62

9 entries from above, arranged by “viability robust z-score”, high to low.
Gene,viability hit class,caspase hit class,viability robust z-score,caspase robust z-score
HSPB7,no change,no change,1.38,0.66
NIPBL,no change,no change,0.79,-0.73
NRIP3,no change,no change,0.44,-0.63
EIF3K,no change,no change,-0.37,-0.46
COL15A1,no change,no change,-0.38,2.8
GEMIN4,no change,no change,-0.68,-0.42
CREBL2,no change,no change,-1.85,1.13
SF3B5,no change,no change,-4.54,3.07
RPL7,no change,no change,-4.86,-0.64

Further entries follow.
Gene,viability hit class,caspase hit class,viability robust z-score,caspase robust z-score
CMTM6,no change,no change,-0.46,-0.4
IFTAP,no change,no change,-0.48,1.9
SMC5,no change,no change,-0.59,1.96
SCARA3,no change,no change,-0.5,-0.96
CCND3,no change,no change,1.29,-0.25
RSAD1,no change,no change,0.01,-1.15
ASF1B,no change,no change,-0.46,-0.67
CDY1,no change,no change,-2.23,2.73
SERPINB6,no change,no change,0.08,-0.64
RAD54L,no change,no change,0.03,-0.41
DNAJC6,no change,no change,-1.08,-1.05
SMOX,no change,no change,1.4,-0.99
SPTBN5,no change,no change,-0.57,-0.2
ZNF43,no change,no change,-0.26,1.68
IGFL3,no change,no change,0.62,-0.1
OMG,no change,no change,-1.22,2.62
C4BPA,no change,no change,0.77,0.34
HSD3B1,no change,no change,-0.14,-0.79
TSPAN11,no change,no change,-0.43,0.17
CDIPT,no change,no change,-0.48,-0.7
OR51M1,no change,no change,-0.38,0.73
ADRB3,no change,no change,0.27,1.64
CELSR1,no change,no change,0.06,1.02
ZRANB3,no change,no change,0.36,-0.52
TSBP1,no change,no change,0.81,0.82
PTGDR,no change,no change,0.21,0.06
SLC49A4,no change,no change,1.29,-0.6
ACSM2B,no change,no change,0.88,-1
AFG2B,no change,no change,1.45,-0.7
PCDH18,no change,no change,-0.7,4.57
FBXL5,no change,no change,0.46,-0.01
SPDEF,no change,no change,-0.36,0.66
MBTPS1,no change,no change,0.36,-0.56
PYROXD2,no change,no change,0.77,-0.11
MYO3B,no change,no change,0.21,-1.04
FTHL17,no change,no change,0.48,1.24
PCDHA9,no change,no change,-1.83,4.04
RPS25,no change,no change,-1.07,-1.01
